Among the data in publication doi:10.1101/2023.10.26.564194 (bioRxiv, 2023) are binding values, retold here.

No constants are given. Whether binding was seen depends on the method and setting. Binding seen in cells or lysates may run through a third protein. A result given as binding can be weak or reduced; the word gives no strength.

This assay concerns the target T1, nuclear factor erythroid 2-related factor 2 (NRF2), endogenous (human (endogenous in MDA-MB-231, HCT116, MCF7)) (UniProt Q16236).
T1 sequence: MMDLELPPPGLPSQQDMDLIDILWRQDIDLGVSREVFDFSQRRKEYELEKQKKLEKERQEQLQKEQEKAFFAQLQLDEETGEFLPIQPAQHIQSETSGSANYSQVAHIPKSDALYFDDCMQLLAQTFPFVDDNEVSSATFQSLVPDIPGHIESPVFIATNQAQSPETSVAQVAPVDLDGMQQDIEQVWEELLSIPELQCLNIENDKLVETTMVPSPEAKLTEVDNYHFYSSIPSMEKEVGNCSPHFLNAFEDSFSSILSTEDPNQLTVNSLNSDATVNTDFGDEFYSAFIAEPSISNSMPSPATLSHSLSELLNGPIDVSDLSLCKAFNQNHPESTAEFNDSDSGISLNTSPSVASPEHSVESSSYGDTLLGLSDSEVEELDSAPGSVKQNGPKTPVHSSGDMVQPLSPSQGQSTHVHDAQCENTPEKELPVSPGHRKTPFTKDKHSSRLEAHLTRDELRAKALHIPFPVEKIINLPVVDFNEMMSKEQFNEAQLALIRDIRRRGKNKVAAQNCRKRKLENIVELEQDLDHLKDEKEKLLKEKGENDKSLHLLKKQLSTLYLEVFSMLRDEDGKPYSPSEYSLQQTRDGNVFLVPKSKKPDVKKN
Put plainly: co-IP.

As for “HSP40, endogenous (human (endogenous in MDA-MB-231, MCF7))”, the binding entry is recorded as “binds weakly”.
